In the supplement of paper PMC4604168 (melanoma cell lines):
The list shows a part of the results. Many values rest on one well or one pass, so single values are uncertain.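 Cells were imaged in 1,536-well plates, and nuclei stained with an antibody against cleaved PARP were counted against all DNA-stained nuclei to give the apoptosis fraction. Screening doses were chosen to leave most cells alive, and resting and induced cleaved-PARP levels differ strongly between cell lines.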

Legend:
Assay in all cases: cleaved PARP positive nuclei fraction relative to DMSO control; melanoma cells; higher = more apoptosis
Conditions in all cases: library dose: low library concentration; 72 h
COLO792 = test system: COLO792
COLO800 = test system: COLO800
COLO829 = test system: COLO829
G361 = test system: G361
IPC-298 = test system: IPC-298
IST-MEL1 = test system: IST-MEL1
LB2518-MEL = test system: LB2518-MEL
LOXIMVI = test system: LOXIMVI

SMILES | cleaved PARP positive nuclei fraction (COLO792) [%] | cleaved PARP positive nuclei fraction (COLO800) [%] | cleaved PARP positive nuclei fraction (COLO829) [%] | cleaved PARP positive nuclei fraction (G361) [%] | cleaved PARP positive nuclei fraction (IPC-298) [%] | cleaved PARP positive nuclei fraction (IST-MEL1) [%] | cleaved PARP positive nuclei fraction (LB2518-MEL) [%] | cleaved PARP positive nuclei fraction (LOXIMVI) [%]
COc1ccc(C2=N[C@@H](c3ccc(Cl)cc3)[C@@H](c3ccc(Cl)cc3)N2C(=O)N2CCNC(=O)C2)c(OC(C)C)c1 [Nutlin-3] + C/C(O)=C(\C#N)C(=O)Nc1cc(Br)ccc1Br [LFM-A13] (first compound 0.1 µM, partner dose 2 µM) | 34.7 | 338 | 122 | 146 | 184 | 99.3 | 86.4 | 85.5
C[C@@H](Oc1cc(-c2cnn(C3CCNCC3)c2)cnc1N)c1c(Cl)ccc(F)c1Cl [Crizotinib] + Cc1cc(SCc2sc(-c3ccc(C(F)(F)F)c(F)c3)nc2C)ccc1OCC(=O)O [GW0742] (first compound 0.2 µM, partner dose 2 µM) | 86.9 | 113 | 131 | 172 | 62.6 | 126 | 202 | 172
C=CCNC1=C2C[C@@H](C)C[C@H](OC)[C@H](O)[C@@H](C)/C=C(\C)[C@H](OC(N)=O)[C@@H](OC)/C=C\C=C(/C)C(=O)NC(=CC1=O)C2=O [Tanespimycin] + O=C(Oc1ccc([N+](=O)[O-])cc1)N1CCC(C(O)(c2ccc3c(c2)OCO3)c2ccc3c(c2)OCO3)CC1 [JZL184] (first compound 0.002 µM, partner dose 1 µM) | 210 | 135 | 39.8 | 76.7 | 139 | 118 | 58.8 | 174
C[C@]1(O)C[C@@H](c2nc(-c3ccc4ccc(-c5ccccc5)nc4c3)c3c(N)nccn32)C1 + O=C(Oc1ccc([N+](=O)[O-])cc1)N1CCC(C(O)(c2ccc3c(c2)OCO3)c2ccc3c(c2)OCO3)CC1 [JZL184] (first compound 0.4 µM, partner dose 1 µM) | 147 | 42.1 | 131 | 114 | 149 | 107 | 35 | 116
C[C@]12O[C@H](C[C@]1(O)CO)n1c3ccccc3c3c4c(c5c6ccccc6n2c5c31)CNC4=O [Lestaurtinib] + Oc1nc(-c2ccc(C(F)(F)F)cc2)nc2c1CSCC2 [XAV939] (first compound 0.004 µM, partner dose 2 µM) | 140 | 26.6 | 79.1 | 150 | 46.2 | 80.9 | 74.6 | 243
